Results are given in words; binding and its absence hold for the method and conditions named. Binding seen in cells or lysates may run through a third protein. Some binding calls cover weakened binding; strength is not graded here.
Legend:
[1] = target: HA-Klf4 (Krüppel-like factor 4), wild type (UniProt O43474); experiment: co-IP; HEK293T and SMMC7721 cells transfected with Flag-DDX17 or HA-Klf4 plasmid for 48 h, lysed; Flag-M2/HA beads; washed four times with cell lysis buffer; Western blotting (mutant Klf4 in HEK293T only)
[2] = target: GST-Klf4 fusion protein (UniProt O43474); experiment: pull-down; purified GST-Klf4 on GST beads incubated with lysates of DDX17-transfected HEK293T cells overnight at 4 °C; washed four times; Western blotting; only the target purified
[3] = target: Flag-DDX17 (DEAD box RNA helicase 17) (UniProt Q92841); experiment: co-IP; HEK293T and SMMC7721 cells transfected with Flag-DDX17 or HA-Klf4 plasmid for 48 h, lysed; Flag-M2/HA beads; washed four times with cell lysis buffer; Western blotting (mutant Klf4 in HEK293T only)

Chains of the proteins cited; added tags and fusions are not shown.
UniProt O43474: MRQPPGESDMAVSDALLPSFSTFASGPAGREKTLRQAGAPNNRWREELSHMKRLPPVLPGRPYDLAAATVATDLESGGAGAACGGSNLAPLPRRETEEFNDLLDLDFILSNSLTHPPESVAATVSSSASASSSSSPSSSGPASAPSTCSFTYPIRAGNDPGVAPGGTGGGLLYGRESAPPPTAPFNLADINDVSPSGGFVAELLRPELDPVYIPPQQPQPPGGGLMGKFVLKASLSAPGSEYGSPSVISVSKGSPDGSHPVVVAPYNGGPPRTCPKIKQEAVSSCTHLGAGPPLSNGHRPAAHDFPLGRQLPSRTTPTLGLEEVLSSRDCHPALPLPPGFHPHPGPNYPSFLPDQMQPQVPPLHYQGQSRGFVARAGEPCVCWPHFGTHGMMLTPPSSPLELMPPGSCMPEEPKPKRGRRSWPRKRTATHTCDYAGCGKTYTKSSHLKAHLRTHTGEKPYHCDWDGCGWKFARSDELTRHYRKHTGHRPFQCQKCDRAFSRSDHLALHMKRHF
UniProt Q92841: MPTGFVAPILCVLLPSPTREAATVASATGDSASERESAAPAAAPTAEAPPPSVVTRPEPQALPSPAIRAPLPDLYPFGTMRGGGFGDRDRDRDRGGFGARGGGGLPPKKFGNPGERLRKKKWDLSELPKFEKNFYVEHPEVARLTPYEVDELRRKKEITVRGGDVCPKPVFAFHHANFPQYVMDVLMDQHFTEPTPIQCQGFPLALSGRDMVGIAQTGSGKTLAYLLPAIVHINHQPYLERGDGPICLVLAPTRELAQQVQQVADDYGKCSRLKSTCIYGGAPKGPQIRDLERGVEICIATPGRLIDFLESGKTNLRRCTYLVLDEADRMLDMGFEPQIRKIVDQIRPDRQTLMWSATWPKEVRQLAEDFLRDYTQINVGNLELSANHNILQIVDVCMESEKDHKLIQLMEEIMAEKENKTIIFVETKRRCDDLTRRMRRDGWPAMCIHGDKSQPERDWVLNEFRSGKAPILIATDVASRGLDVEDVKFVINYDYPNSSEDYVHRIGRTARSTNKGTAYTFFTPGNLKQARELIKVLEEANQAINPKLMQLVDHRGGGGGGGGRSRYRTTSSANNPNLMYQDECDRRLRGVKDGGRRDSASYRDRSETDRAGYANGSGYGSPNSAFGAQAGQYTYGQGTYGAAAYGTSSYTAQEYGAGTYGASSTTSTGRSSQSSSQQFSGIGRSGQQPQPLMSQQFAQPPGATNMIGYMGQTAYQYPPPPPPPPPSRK

| Substance | binding [1] | binding [2] | binding [3] |
| --- | --- | --- | --- |
| Flag-DDX17 (DEAD box RNA helicase 17) (from UniProt Q92841 1-729) | binds | binds | – |
| HA-Klf4 (Krüppel-like factor 4), wild type (from UniProt O43474 1-513) | – | – | binds |

Source: PMC6814716
